About 220 (0.063%) of roughly 350,000 compounds were called active. Inconclusive means that the source gave no clear call. Such entries were picked first, then a sample of the others. Calls come from the whole dose curve; as a rule, active = well fitted activation curve with a large enough effect; inconclusive = small, poorly fitted or top-dose-only effect; inactive = no such curve, though single readings can be large or run the other way. Where the call is inconclusive, the potency comes from a doubtful curve fit.
test: qHTS for Activators of Integrin-Mediated Alleviation for Muscular Dystrophy; details: alpha7betagal myoblasts, beta-gal FDG fluorescence, 48 h; series mostly up to 38.3 µM; note: nearly all actives have a fitted effect of over 60% in size
In short: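 alpha7betagal+/- myoblasts (passage 13, 250/well) treated 48 h at 37C with compounds at 1:260 dilution of DMSO stock. Lysed, then beta-galactosidase activity read as FDG fluorescence (ex 480/em 540) after 30 min, with pre-read for autofluorescence.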
Potency is the fitted concentration of half-maximal effect.

Row | Compound | Potency
1 | CC(=O)c1c(C)[nH]c(C(=O)Nc2cccc(C#N)c2)c1C | inconclusive: 10 µM [activator, partial curve, poor fit]
2 | CC(=O)Nc1ccc(C(=O)OCC(=O)Nc2c(F)cccc2F)cc1 | inconclusive: 10 µM [activator, partial curve, poor fit]
3 | COC(=O)c1ccc(NC(=O)c2ccccc2SC)cc1 | inconclusive: 28.2 µM [activator, partial curve, poor fit]
4 | CC(=O)N1CCN(S(=O)(=O)c2ccc(S(=O)(=O)NC3CCCCC3)cc2)CC1 | inconclusive: 2.82 µM [activator, single point]
5 | CC(=O)N[C@@H](C)C(=O)N1CCN(S(=O)(=O)c2ccc(Cl)cc2)CC1 | inconclusive: 0.501 µM [activator, full curve, poor fit]
6 | O=C(N/N=C/c1coc2ccc(Cl)cc2c1=O)c1ccc(O)cc1 | inconclusive: 5.01 µM [activator, single point]
7 | Cc1nn(CC(=O)Nc2ccc3nc4n(c(=O)c3c2)CCCC4)c(C)c1[N+](=O)[O-] | inactive
8 | Cc1ccc(OCC(=O)OC2CCCN(C)C2)cc1 (stereo not given) | inconclusive: 28.2 µM [activator, single point]
9 | Cc1ccc(-c2nc3ncccn3c2Nc2ccccc2C)o1 | inactive
10 | COc1cc(OC)c2c(C)cc(=O)oc2c1C(CCN1CCN(c2ccccc2)CC1)c1ccc2c(c1)OCO2 (stereo not given) | inactive
11 | CC1CCCN(C(=O)CCCC(=O)N2CCCC(C)C2)C1 (stereo not given) | inconclusive: 2.24 µM [activator, partial curve, poor fit]
12 | CCN1CCCC1CNS(=O)(=O)c1c(C)cc(C)cc1C (stereo not given) | inconclusive: 28.2 µM [activator, single point]
13 | O=[N+]([O-])c1cccc(/C=N/N2CCN(Cc3ccc(Cl)cc3)CC2)c1 | inconclusive: 0.891 µM [activator, full curve, poor fit]
14 | CN1CCN(C(=O)C(N)Cc2ccccc2)CC1 (stereo not given) | inconclusive: 22.4 µM [activator, single point]
15 | COc1ccc(CC(=O)N2CCCc3ccccc32)cc1OC | inconclusive: 28.2 µM [activator, single point]
16 | COc1cc(C)nc(N2CCCC(C(=O)Nc3ccccc3Br)C2)n1 (stereo not given) | inconclusive: 1 µM [activator, partial curve, poor fit]
17 | COC(=O)c1sccc1NC(=O)Nc1cc(C)ccc1OC | inactive
18 | O=C(Nc1ccc(Cl)c([N+](=O)[O-])c1)C(Sc1ccccc1)c1ccccc1 (stereo not given) | inactive
19 | O=C(NC(=S)Nc1cc(Cl)ccc1Cl)c1ccco1 | inactive
20 | COc1cnc(-c2ccccn2)nc1N(C)c1ccccc1 | inactive
21 | CCOc1ccc(NC(=O)Nc2cc(C(C)C)c(O)cc2C)cc1 | inactive
22 | O=C(NCc1ccccn1)Nc1ccc(F)c(Cl)c1 | inconclusive: 10 µM [activator, single point]
23 | CCOc1ccccc1C(=O)NC1CCN(CC(=O)Nc2cc(OC)ccc2OC)CC1 | inactive
24 | Cc1ccc(S(=O)(=O)Oc2ccccc2/C=N/O)cc1 | inactive
25 | COc1ccccc1S(=O)(=O)N1CCN(S(=O)(=O)c2cccs2)CC1 | inconclusive: 20 µM [activator, single point]

Row | Compound | Potency
26 | CC(NC(=O)CN(C)CC(=O)Nc1ccc(Cl)c(C(F)(F)F)c1)c1ccccc1 (stereo not given) | inactive
27 | CCC(=O)N1CCc2cc(S(=O)(=O)N3CCN(c4ccccc4)CC3)ccc21 | inconclusive: 10 µM [activator, single point]
28 | O=C(O)c1cccc(NC(=O)c2ccc(CN3C(=O)c4ccccc4C3=O)cc2)c1 | inconclusive: 28.2 µM [activator, single point]
29 | CCCCCCCCNS(=O)(=O)CCNCc1ccccc1 | inactive
30 | CNC(=O)c1c(NC(=O)CCS(=O)(=O)c2ccc(C)cc2)sc(C)c1C | inconclusive: 5.62 µM [activator, partial curve, poor fit]
31 | CCOc1ccc2c(c1)c1nc3ccccc3nc1n2C | inconclusive: 3.98 µM [activator, single point]
32 | COc1ccccc1NC(=O)CSc1nnnn1C1CCCCC1 | inconclusive: 28.2 µM [activator, single point]
33 | CC(C)(C)c1cc(C(=O)CCN2CCOCC2)cc(C(C)(C)C)c1O | inactive
34 | O=C1CCC(=O)N1c1ccc(S(=O)(=O)N2CCCC2)cc1 | inconclusive: 28.2 µM [activator, single point]
35 | FC(F)(F)c1cnc(NNC(=S)Nc2ccccc2Cl)c(Cl)c1 | inactive
36 | COc1ccc(CSc2nc3ccccc3c(=O)n2CCCN2CCOCC2)cc1F | inactive
37 | O=C(CN1CCN(c2cccc(C(F)(F)F)c2)CC1)NCc1ccccc1 | inactive
38 | CC(C)(C)C(=O)Nc1ccc(S(=O)(=O)NC2=NCCCCC2)cc1 | inconclusive: 1.41 µM [activator, partial curve, poor fit]
39 | N#CC1=C(N)Nc2ncnn2C1c1ccc([N+](=O)[O-])cc1 (stereo not given) | inconclusive: 1.78 µM [activator, full curve, poor fit]
40 | C/C(=N\N1C(=O)c2ccccc2C1=O)c1cccc([N+](=O)[O-])c1 | inconclusive: 2 µM [activator, single point]
41 | Cc1ccc(/C=C/C(=O)C2C(=O)c3ccccc3C2=O)cc1 | inactive
42 | COc1ccc(C(=O)/C=C2\C(=O)Nc3ccc(Br)cc32)cc1 | inactive
43 | Cc1ccc2c(c1)NC(C(C)(C)C)CO2 (stereo not given) | inconclusive: 4.47 µM [activator, partial curve, poor fit]
44 | Cc1nn2c(NCCN3CCOCC3)c3c(nc2c1-c1ccccc1)CCCC3 | inactive
45 | COc1sc(SC)cc1/C=N/NC(=O)c1ccncc1 | inconclusive: 3.55 µM [activator, partial curve, poor fit]
46 | CCCCn1c(=O)c(C(C)=O)c(O)c2ccccc21 | inconclusive: 28.2 µM [activator, single point]
47 | c1ccc(Cc2nnc(N3CCCCC3)c3ccccc23)cc1 | inactive
48 | CN(CC(=O)Nc1ccc(Cl)cc1)C(=O)c1cccc(S(=O)(=O)NCc2ccccc2)c1 | inactive
49 | Cc1ccccc1CNC(=O)Cn1cnc(S(=O)(=O)N2CCCC2)c1 | inconclusive: 5.01 µM [activator, single point]
50 | Cc1onc(-c2ccccc2Cl)c1C(=O)NNC(=O)C1CCN(Cc2ccccc2)CC1 | inconclusive: 2.51 µM [activator, partial curve, poor fit]

In a second layout: results already given
Row	Compound	Potency
42	COc1ccc(C(=O)/C=C2\C(=O)Nc3ccc(Br)cc32)cc1	inactive
43	Cc1ccc2c(c1)NC(C(C)(C)C)CO2 (stereo not given)	inconclusive: 4.47 µM [activator, partial curve, poor fit]
44	Cc1nn2c(NCCN3CCOCC3)c3c(nc2c1-c1ccccc1)CCCC3	inactive

Later entries.

Row | Compound | Potency
51 | CSc1cc(C)[nH]c(=O)n1 | inconclusive: 7.94 µM [activator, partial curve, poor fit]
52 | CCCCN(CC)S(=O)(=O)c1ccc(C(=O)Nc2nnc(CSC)o2)cc1 | inactive
53 | CCN(CC)S(=O)(=O)c1ccc(-c2cn3cc(Cl)ccc3n2)cc1 | inconclusive: 0.447 µM [activator, partial curve, poor fit]
54 | CCCc1ccc(OCCNC(C)=O)cc1 | inactive
55 | Cc1cc(C(=O)CSc2nnnn2-c2ccccc2)c(C)n1-c1ccc2c(c1)OCO2 | inactive
56 | COc1ccccc1N1CCN(C(CNS(=O)(=O)c2ccccc2)c2ccccc2)CC1 (stereo not given) | inconclusive: 5.01 µM [activator, single point]
57 | CCCc1ccc(C(=O)O/N=C(\N)c2ccccn2)cc1 | inactive
58 | Cc1coc2c1c(C)cc1oc(=O)c(CC(=O)NCCCCCC(=O)O)c(C)c12 | inactive
59 | Cc1cccc(N(CC(=O)NC2CCCCC2)C(=O)c2ccc(C)s2)c1 | inactive
60 | COc1ccc(CCNC(=O)CCCn2c(=O)c3cccn3c3cccnc32)c(OC)c1 | inconclusive: 1 µM [activator, partial curve, poor fit]
61 | CC1(C)C(C=C(Cl)Cl)C1C(=O)NC(O)C(=O)c1ccccc1 (stereo not given) | inconclusive: 5.01 µM [activator, single point]
62 | COc1cccc(C(C(=O)NC2CCCC2)N(C(=O)c2ccco2)c2ccccc2)c1OC (stereo not given) | inconclusive: 5.01 µM [activator, single point]
63 | N#Cc1ccc(CN2CCN(C(=O)c3cccc(S(=O)(=O)N4CCCCCC4)c3)CC2)cc1 | inactive
64 | COC(=O)c1cc(S(=O)(=O)N2CCN(C(=O)c3ccco3)CC2)cn1C | inconclusive: 3.16 µM [activator, single point]
65 | O=C(Cn1c(=O)c(=O)n(Cc2ccccc2)c2ccc(Cl)cc21)Nc1cccc(F)c1 | inactive
66 | COC(=O)c1cc(NC(=O)c2cc(-c3ccc(C(F)(F)F)cc3)oc2C(F)(F)F)ccc1N1CCOCC1 | inactive
67 | COc1ccc(CCC(C)N2CCC(CO)(Cc3ccccc3)CC2)cc1 (stereo not given) | inactive
68 | Cc1[nH]cnc1C(=O)N/N=C/c1c(Cl)cccc1Cl | inactive
69 | COc1cc(/C=N/NC(=O)/C(=C\c2ccc([N+](=O)[O-])cc2)NC(=O)c2ccccc2)cc(OC)c1O | inactive
70 | CCCS(=O)(=O)c1nc(S(=O)(=O)c2ccc(C)cc2)c(N2CCC(C(N)=O)CC2)s1 | inconclusive: 28.2 µM [activator, single point]
71 | Cc1ccc(C(NC(N)=O)c2ccccc2C)cc1 (stereo not given) | inactive
72 | O=C(c1ccccc1F)N1CCc2ccccc21 | inconclusive: 0.501 µM [activator, full curve, poor fit]
73 | O=C(COc1cccc2cccnc12)N/N=C/c1cccn1-c1ccc(F)cc1 | inconclusive: 5.01 µM [activator, single point]
74 | Cc1ccnc(NCc2ccc(Cl)cc2)c1 | inconclusive: 28.2 µM [activator, single point]
75 | O=C(/C=C/c1ccc(Br)o1)Nc1nccs1 | inconclusive: 28.2 µM [activator, single point]

From PubChem BioAssay AID624291 (National Center for Advancing Translational Sciences (NCATS), 2012)
